# Reference: PubChem BioAssay AID1745857 (National Center for Advancing Translational Sciences (NCATS), 2022)
# Screen size: about 120,000 compounds; about 370 (0.31%) were called active. Listed are the inconclusive results; actives and inactives stand elsewhere. The call rests on the fitted dose curve.
# Test: Primary qHTS Assay for Foot and Mouth Disease Virus Antivirals against NCGC Sytravon and CBC Compound Libraries: Renilla Luciferase Signal; further: nearly all actives have a fitted effect of over 55% in size
# Settings: FMDV replicon cells
# Potency means the concentration at half of the fitted maximal effect.
row,SMILES,Potency
1,C/C1=C2N=C(/C=C3N=C(/C(C)=C4\[N-][C@@](C)([C@@H]5N=C1[C@](C)(CCC(=O)NC[C@@H](C)OP(=O)([O-])O[C@H]1[C@@H](O)[C@@H](n6cnc7cc(C)c(C)cc76)O[C@@H]1CO)[C@H]5CC(N)=O)[C@@](C)(CC(N)=O)[C@@H]4CCC(N)=O)[C@@](C)(CC(N)=O)[C@@H]\3CCC(N)=O)C(C)(C)[C@@H]/2CCC(N)=O.[C-]#N.[Co+3],inconclusive: 39.8 µM
